In PubChem BioAssay AID504594 (Broad Institute, 2011):
Hit rate of the full screen: of about 2,000 compounds, fewer than 10 were called active.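 How the source made its calls: active means growth inhibition of at least 75% in every replicate, which also brings the mean inhibition to 75% or more; inconclusive means mean inhibition 75% or more but some replicate under 75%; inactive means the rest.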 The list shows a part of the results.

assay: growth inhibition of PfHsp90-dependent yeast, primary screen, antimalarial PfHsp90 inhibitor project, S. cerevisiae, BacTiter-Glo luminescence (AID 504594);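 further: 0% = DMSO neutral control wells and 100% = 20 µM radicicol control wells; higher value means stronger growth inhibition because the sign is flipped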; conditions: S. cerevisiae expressing PfHsp90, BacTiter-Glo growth, 48 h; at 9.4 µM; stronger effect = higher value

SMILES | growth inhibition
Nc1ccc2cn[nH]c2c1 | inactive: 3.87%
O=C1OC(Nc2ccc3c(c2)OCO3)c2ccccc21 (centres undefined) | inactive: -1.88%
CCNC(=O)c1c(N)sc2c1CCCCC2 | inactive: -0.729%
COc1ccc(C(C)N2CC34C=CC(O3)C(C(=O)OCC(C)C)C4C2=O)cc1 (centres undefined) | inactive: -5.07%
Nc1c2c(nc3ccccc13)CCCC2 | inactive: -5.11%
COc1cc2c3c(c1)C1(C(=O)N3C(C)(C)C=C2C)C(C#N)=C(N)Oc2cc(C)oc(=O)c21 (centres undefined) | inactive: 5.07%
COc1cc2c(cc1OC)C(C)=NC1(CCCCC1)C2 | inactive: -11.3%
CN(C)CCCN1c2ccccc2Sc2ccccc21 | inactive: -10.8%
Cn1c(SCC(=O)c2ccccc2)nnc1-c1ccncc1 | inactive: 0.861%
COc1ccc(N2C(=O)[C@@H]3[C@H](C2=O)[C@H]2c4ccccc4C=CN2[C@@H]3C(C)=O)cc1 | inactive: 2.31%
Cc1cc(C(C)(C)C)c(O)c(C)c1CC1=NCCN1 | inactive: 0.506%
Nc1c(C(=O)c2ccccc2)oc2ccccc12 | inactive: 4.23%
CC(=O)N(CCC(Cc1ccccc1)c1ccco1)Cc1ccco1 (centres undefined) | inactive: -1.71%
C[C@]12CC[C@@H]3c4ccc(O)cc4CC[C@H]3[C@@H]1CC[C@@H]2OC(=O)CCC(=O)O | inactive: -19.8%
O=C(NCc1ccc(N2CCCC2=O)cc1)c1cccc(Cl)c1 | inactive: 8.67%
Cc1ccc2c(c1)c1c3n2CCCNC3CCC1 (centres undefined) | inactive: 4.09%
COc1ccc(C2N3CC4(C)CN2CC(C)(C3)C4)cc1OC (centres undefined) | inactive: 12.1%
COc1ccc2c(c1OC)C(=O)OC2C1c2c(cc3c(c2OC)OCO3)CCN1C (centres undefined) | inactive: 0.728%
COc1ccc(CCNC(=O)c2ccc(Cl)cc2)cc1OC | inactive: 13.9%
CCCN1C[C@H](CSC)C[C@@H]2c3cccc4[nH]cc(c34)C[C@H]21 | inactive: 7.89%
CCC(=O)Oc1ccc(/C(CC)=C(\CC)c2ccc(OC(=O)CC)cc2)cc1 | inactive: -13.5%
CCN1C(=O)C(CC(=O)Nc2ccc(F)cc2)N(Cc2ccco2)C1=S (centres undefined) | inactive: -5.62%
COc1ccc2[nH]cc(C(=O)CCl)c2c1 | inactive: -7.65%
Nc1cccc(C(=O)O)c1 | inactive: -21.3%

SMILES | growth inhibition
COc1cc(CNCc2ccc(OC)c(OC)c2OC)cc(OC)c1 | inactive: 5.29%
N/C(Cc1ccc(Cl)cc1Cl)=N\OC(=O)c1ccc(Br)o1 | inactive: 30.5%
CN(Cc1c(C(=O)N(C)Cc2ccccc2)nc2ccccn12)CC1Cc2ccccc2O1 (centres undefined) | inactive: 11.4%
OCCC1CN(Cc2nc(-c3ccccc3)cs2)CCN1Cc1ccc(F)cc1 (centres undefined) | inactive: -1.52%
c1ccc2c(c1)CCOC2CNCCCN1CCCCC1 (centres undefined) | inactive: -0.298%
CCN1C(=O)C(CC(=O)Nc2ccc(OC)cc2)N(CCc2ccc(F)cc2)C1=S (centres undefined) | inactive: -2%
CC1(C)Oc2ccc(C#N)cc2[C@@H](N2CCCC2=O)[C@@H]1O | inactive: 7.78%
CC[N+](C)(C)Cc1ccccc1Br | inactive: -0.648%
O=C(NCc1ccccc1Cl)NC(=O)c1ccccc1 | inactive: -17.2%
Cc1oncc1C(=O)Nc1ccc(C(F)(F)F)cc1 | inactive: 4.91%
COc1ccc(C(Cl)=C(c2ccc(OC)cc2)c2ccc(OC)cc2)cc1 | inactive: 3.91%
O=C(O)c1cccnc1Nc1cccc(C(F)(F)F)c1 | inactive: 10.6%
CC(CCc1ccccc1)NCC(O)c1ccc(O)c(C(N)=O)c1 (centres undefined) | inactive: -2.57%
CCc1cc2c(=O)c(-c3ccc4c(c3)OCCO4)coc2c(CN2CCCCC2C)c1O (centres undefined) | inactive: -11.5%
Cc1ccc(Cl)c(OCCCN(C)Cc2ccccc2)c1 | inactive: 3.97%
C[C@]12CCC(=O)C=C1[C@H](O)C[C@@H]1[C@@H]2[C@@H](O)C[C@@]2(C)[C@H]1CC[C@]2(O)C(=O)CO | inactive: -5.05%
Cc1[nH]nc(-c2ccc(O)cc2O)c1Oc1ccccc1 | inactive: 1.63%
Fc1ccc(C(c2ccc(F)cc2)N2CCN(C/C=C/c3ccccc3)CC2)cc1 | inactive: -7.94%
CCOC(=O)C(=O)Nc1ccc(Oc2ccccc2)cc1 | inactive: 6.51%
COc1ccccc1C(=O)Nc1cc2cc(Br)ccc2oc1=O | inactive: -5.87%
CCCCC(=O)O[C@H]1CC[C@H]2[C@@H]3CCc4cc(O)ccc4[C@H]3CC[C@]12C | inactive: -6.39%
CC(=O)C1=C(O)C(=O)N(CC(=O)O)C1c1ccccc1Cl (centres undefined) | inactive: 6.61%
N=C(N)c1ccc(OCCCCCOc2ccc(C(=N)N)cc2)cc1 | inactive: 2.21%
CCN(CC)CCN1C(=O)C(=O)/C(=C(/O)c2c(C)[nH]c(C(=O)OC)c2C)C1c1cccnc1 (centres undefined) | inactive: -4.71%

SMILES | growth inhibition
CC/C(=C1/C(=O)CC(C)(C)C(C(=O)OC)C1=O)N1CCCC1 (centres undefined) | inactive: -4.07%
CC(=O)c1c(N)nc2n(c1=O)CCCCC2 | inactive: 2.63%
O=C(O)[C@@H](O)c1ccccc1 | inactive: -2.46%
C/C(CCc1oc2ccc(Cl)cc2c1-c1ccc(C)o1)=N\O | inactive: -3.04%
Nc1nc(Cl)nc2c1ncn2[C@H]1C[C@H](O)[C@@H](CO)O1 | inactive: -12.6%
Cc1ccsc1/C=N\NC(=O)c1ccc2c(c1)OCO2 | inactive: -11.9%
CNCCCC1c2ccccc2C=Cc2ccccc21 | inactive: 4.11%
O=C(O)CC(O)C(=O)O (centres undefined) | inactive: 2.49%
O=C(Nc1cccc(C(=O)O)c1)/C(=C\c1ccccc1)NC(=O)c1ccccc1 | inactive: -1.43%
CC(C)N(Cc1nccn1C)C(=O)CC1C(=O)NCCN1Cc1ccccc1C(F)(F)F (centres undefined) | inactive: -0.671%
C[C@]12CCC(=O)C=C1CC[C@@H]1[C@@H]2[C@@H](O)C[C@@]2(C)[C@H]1CC[C@]2(O)C(=O)CO | inactive: 7.79%
CC(=O)N1CCN(c2ccc(NC(=O)/C=C/c3ccccc3)cc2)CC1 | inactive: 10.6%
COc1ccc(-c2coc3c(CN4CCOCC4)c(O)ccc3c2=O)cc1 | inactive: -0.608%
N/C(=N\OC(=O)c1cccc(Br)c1)c1ccncc1 | inactive: -13%
Nc1cccc2nc3ccccc3cc12 | inactive: -18%
O=C(NC1CC1)C1CCN(C2CCN(C(=O)Cc3ccc(F)cc3)CC2)CC1 | inactive: -1.38%
CCCc1cc(=O)[nH]c(=S)[nH]1 | inactive: -10.9%
COC(=O)CN1C(=S)N(c2ccc(F)cc2)C(=O)C1CC(=O)Nc1ccccc1 (centres undefined) | inactive: 9.33%
COc1ccc(CCN(C)CCCC(C#N)(c2ccc(OC)c(OC)c2)C(C)C)cc1OC (centres undefined) | inactive: 2.9%
C[C@]12CC[C@@H]3c4ccc(O)cc4CC[C@H]3[C@@H]1CC[C@@H]2O | inactive: -10.1%
CCC[C@@H]1C[C@@H](C(=O)N[C@H]([C@@H](C)O)[C@H]2O[C@H](SC)[C@H](O)[C@@H](O)C2O)N(C)C1 (some centres undefined) | inactive: -9.09%
COc1cccc(OC)c1C(=O)Nc1nc2ccc([N+](=O)[O-])cc2s1 | inactive: -13.1%
CCCN(CCC)S(=O)(=O)c1ccc(C(=O)O)cc1 | inactive: -0.263%
COc1ccc(C2NC(C(=O)O)Cc3c2[nH]c2ccccc32)cc1CN1CCN(c2ccc(F)cc2)CC1 (centres undefined) | inactive: -5.92%

Already shown: 2 of the compounds above.
SMILES | growth inhibition
C/C(CCc1oc2ccc(Cl)cc2c1-c1ccc(C)o1)=N\O | inactive: -3.04%
Nc1nc(Cl)nc2c1ncn2[C@H]1C[C@H](O)[C@@H](CO)O1 | inactive: -12.6%

Arranged by number of heavy atoms (descending): 3 of the compounds above
SMILES | growth inhibition
COc1ccc(C2NC(C(=O)O)Cc3c2[nH]c2ccccc32)cc1CN1CCN(c2ccc(F)cc2)CC1 (centres undefined) | inactive: -5.92%
C[C@]12CCC(=O)C=C1CC[C@@H]1[C@@H]2[C@@H](O)C[C@@]2(C)[C@H]1CC[C@]2(O)C(=O)CO | inactive: 7.79%
CNCCCC1c2ccccc2C=Cc2ccccc21 | inactive: 4.11%

(continued)

SMILES | growth inhibition
CSCCC1NC2(C(=O)Nc3ccc(Cl)cc32)[C@@H]2C(=O)N(C3CCCC3)C(=O)[C@H]12 (some centres undefined) | inactive: -3.34%
CN1C2CCC1CC(OC(c1ccccc1)c1ccccc1)C2 (centres undefined) | inactive: -4.57%
CN(C)CCOC(c1ccccc1)c1ccccc1 | inactive: -9.86%
CN1CCc2cccc3c2[C@@H]1Cc1ccc(O)c(O)c1-3 | inactive: -2.67%
O=C(NCc1ccco1)/C(=C\C=C\c1ccccc1)NC(=O)c1ccccc1Br | inactive: -0.463%
CO[C@@H]1O[C@@H]2COC(c3ccccc3)O[C@@H]2[C@@H](OC)[C@@H]1O (some centres undefined) | inactive: 19.6%
CC(=O)N1CCN(c2ccc(OC[C@H]3CO[C@](Cn4ccnc4)(c4ccc(Cl)cc4Cl)O3)cc2)CC1 | active: 94.4%
COc1ccc(S(N)(=O)=O)cc1C(N)=O | inactive: 4.32%
CC(=O)[C@H]1CC[C@H]2[C@@H]3CCC4=CC(=O)CC[C@]4(C)[C@H]3CC[C@]12C | inactive: -16.8%
Cc1ccc2[nH]c3c(=O)n(CCc4cnc[nH]4)cnc3c2c1 | inactive: -0.612%
COC(=O)C1=CN(Cc2cccs2)C=C(C(=O)OC)C1c1cccc(Cl)c1 | inactive: -7.66%
CC(C)NC[C@@H](O)c1ccc(O)c(O)c1 | inactive: 4.1%
O=C(/C=C/c1ccco1)NCc1ccc2c(c1)OCO2 | inactive: 8.47%
CC1=CC(C)(C)N2C(=O)C3(NCCc4c3[nH]c3ccccc43)c3cc(C)cc1c32 (centres undefined) | inactive: -1.26%
COc1ccc(CC(=O)N2CC3(C)CC2CC(C)(C)C3)cc1OC (centres undefined) | inactive: 12.2%
O=c1cnn([C@@H]2O[C@H](CO)[C@@H](O)[C@H]2O)c(=O)[nH]1 | inactive: 4.81%
C=CCN1C(=O)c2oc3ccccc3c(=O)c2C1c1ccc(O)c(OC)c1 (centres undefined) | inactive: -10.9%
COc1cccc2c(=O)c3ccccc3oc12 | inactive: -11.8%
CN(C)CCN(Cc1ccccc1)c1ccccn1 | inactive: -3.86%
CC1(C)C(=O)OC(c2cccs2)C2(CCCCC2)C1=O (centres undefined) | inactive: 1.41%
CC(NC(=O)c1ccc(N2CCNCC2)c([N+](=O)[O-])c1)C12CC3CC(CC(C3)C1)C2 (centres undefined) | inactive: 1.77%
Cn1c(=O)oc2cc(S(=O)(=O)N3CCc4ccccc4C3)ccc21 | inactive: -3.63%
